Values of other authors as cited in patent publication US12329756B2, “Regulation of eIF4E activity for migraine therapy” (Board of Regents, The University of Texas System, priority 2020, dated 2025).
At least one structure is not confirmed: it was looked up by name or label, or the drawing left a doubt.

Conditions: local administration; cited from earlier work

SMILES: CO[C@H]1C[C@@H]2CC[C@@H](C)[C@@](O)(O2)C(=O)C(=O)N2CCCC[C@H]2C(=O)O[C@H]([C@H](C)C[C@@H]2CC[C@@H](O)[C@H](OC)C2)CC(=O)[C@H](C)/C=C(\C)[C@@H](O)[C@@H](OC)C(=O)[C@H](C)C[C@H](C)/C=C/C=C/C=C/1C [rapamycin]
- mechanical hypersensitivity and injury-induced changes in nociceptor excitability: reduces
